These are yes or no findings as the source states them, for the method shown. In cells and extracts the contact can be indirect. These calls come from enrichment with a bait or labelling near it, and not all partners need be listed.
Tests used:
Test in all cases: affinity purification with mass spectrometry
[1] = target: FLAG-SLC3A2 A273N (human) (UniProt P08195)
[2] = target: FLAG-SLC3A2 WTseq (human) (UniProt P08195)
[3] = target: FLAG-SLC3A2 A273N+D355N (human) (UniProt P08195)

The chains behind the UniProt entries cited, without tags or fusion partners. Where a name states a change or a piece, a line headed by the entry shows the natural chain unless it says otherwise. A line that says so, or that is headed by a name, gives the form on record, which may keep a tag or linker. Residues count along the entry.
FLAG-SLC3A2 WTseq (P08195, residues 66-630): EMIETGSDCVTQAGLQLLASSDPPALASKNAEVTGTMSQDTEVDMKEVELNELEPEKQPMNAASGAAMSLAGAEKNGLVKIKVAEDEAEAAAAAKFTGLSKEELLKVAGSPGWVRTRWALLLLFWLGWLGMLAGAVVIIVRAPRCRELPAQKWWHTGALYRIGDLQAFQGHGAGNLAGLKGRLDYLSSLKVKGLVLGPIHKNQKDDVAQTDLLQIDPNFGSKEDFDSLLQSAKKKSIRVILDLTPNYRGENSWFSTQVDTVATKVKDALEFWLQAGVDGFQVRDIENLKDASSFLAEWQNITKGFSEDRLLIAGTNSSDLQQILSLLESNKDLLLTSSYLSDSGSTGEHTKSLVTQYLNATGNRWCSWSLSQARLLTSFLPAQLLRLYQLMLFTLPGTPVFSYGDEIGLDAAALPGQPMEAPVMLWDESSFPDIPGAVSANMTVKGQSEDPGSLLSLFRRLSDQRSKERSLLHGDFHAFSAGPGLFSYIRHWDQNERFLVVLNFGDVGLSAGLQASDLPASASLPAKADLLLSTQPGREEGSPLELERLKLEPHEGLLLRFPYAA
FLAG-SLC3A2 A273N (P08195, form named): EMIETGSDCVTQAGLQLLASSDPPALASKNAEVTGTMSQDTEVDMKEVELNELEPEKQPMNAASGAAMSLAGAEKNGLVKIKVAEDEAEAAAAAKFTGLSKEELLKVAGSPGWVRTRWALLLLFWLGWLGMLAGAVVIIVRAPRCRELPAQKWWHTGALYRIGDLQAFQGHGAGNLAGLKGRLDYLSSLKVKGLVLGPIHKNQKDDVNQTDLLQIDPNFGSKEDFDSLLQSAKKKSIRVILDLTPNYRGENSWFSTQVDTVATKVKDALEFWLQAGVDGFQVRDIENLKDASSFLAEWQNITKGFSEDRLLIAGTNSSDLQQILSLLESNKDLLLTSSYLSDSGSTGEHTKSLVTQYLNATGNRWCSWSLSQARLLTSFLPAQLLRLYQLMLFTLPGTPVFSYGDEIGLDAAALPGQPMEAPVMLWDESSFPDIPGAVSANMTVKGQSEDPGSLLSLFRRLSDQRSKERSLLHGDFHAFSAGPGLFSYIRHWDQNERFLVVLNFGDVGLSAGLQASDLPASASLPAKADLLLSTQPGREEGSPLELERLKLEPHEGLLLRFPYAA
FLAG-SLC3A2 A273N+D355N (P08195, form named): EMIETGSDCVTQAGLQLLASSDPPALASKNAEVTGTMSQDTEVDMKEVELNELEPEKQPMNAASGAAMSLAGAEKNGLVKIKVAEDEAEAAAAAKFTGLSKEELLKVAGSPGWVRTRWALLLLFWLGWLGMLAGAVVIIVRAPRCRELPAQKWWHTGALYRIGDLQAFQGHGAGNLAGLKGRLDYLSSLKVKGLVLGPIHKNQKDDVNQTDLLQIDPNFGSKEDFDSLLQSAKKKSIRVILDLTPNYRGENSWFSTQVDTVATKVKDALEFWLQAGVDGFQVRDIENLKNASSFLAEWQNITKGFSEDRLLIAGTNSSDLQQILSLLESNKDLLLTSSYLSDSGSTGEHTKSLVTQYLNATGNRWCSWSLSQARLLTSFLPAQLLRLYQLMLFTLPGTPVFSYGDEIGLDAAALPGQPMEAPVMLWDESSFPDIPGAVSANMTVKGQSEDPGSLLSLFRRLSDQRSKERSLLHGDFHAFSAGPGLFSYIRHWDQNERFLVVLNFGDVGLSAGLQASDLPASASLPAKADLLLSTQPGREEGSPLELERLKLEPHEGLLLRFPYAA

B1: SLC1A5 (protein, UniProt Q15758 1-541)
chain: MVADPPRDSKGLAAAEPTANGGLALASIEDQGAAAGGYCGSRDQVRRCLRANLLVLLTVVAVVAGVALGLGVSGAGGALALGPERLSAFVFPGELLLRLLRMIILPLVVCSLIGGAASLDPGALGRLGAWALLFFLVTTLLASALGVGLALALQPGAASAAINASVGAAGSAENAPSKEVLDSFLDLARNIFPSNLVSAAFRSYSTTYEERNITGTRVKVPVGQEVEGMNILGLVVFAIVFGVALRKLGPEGELLIRFFNSFNEATMVLVSWIMWYAPVGIMFLVAGKIVEMEDVGLLFARLGKYILCCLLGHAIHGLLVLPLIYFLFTRKNPYRFLWGIVTPLATAFGTSSSSATLPLMMKCVEENNGVAKHISRFILPIGATVNMDGAALFQCVAAVFIAQLSQQSLDFVKIITILVTATASSVGAAGIPAGGVLTLAIILEAVNLPVDHISLILAVDWLVDRSCTVLNVEGDALGAGLLQNYVDRTESRSTEPELIQVKSELPLDPLPVPTEEGNPLLKHYRGPAGDATVASEKESVM
binding [1]: binds | binding [2]: binds | binding [3]: binds

B2: SLC39A1 (protein, UniProt Q9NY26 1-324)
chain: MGPWGEPELLVWRPEAVASEPPVPVGLEVKLGALVLLLVLTLLCSLVPICVLRRPGANHEGSASRQKALSLVSCFAGGVFLATCLLDLLPDYLAAIDEALAALHVTLQFPLQEFILAMGFFLVLVMEQITLAYKEQSGPSPLEETRALLGTVNGGPQHWHDGPGVPQASGAPATPSALRACVLVFSLALHSVFEGLAVGLQRDRARAMELCLALLLHKGILAVSLSLRLLQSHLRAQVVAGCGILFSCMTPLGIGLGAALAESAGPLHQLAQSVLEGMAAGTFLYITFLEILPQELASSEQRILKVILLLAGFALLTGLLFIQI
binding [1]: binds | binding [2]: binds | binding [3]: binds

B3: ADP/ATP translocator SLC25A6 (protein, UniProt P12236 1-298)
chain: MTEQAISFAKDFLAGGIAAAISKTAVAPIERVKLLLQVQHASKQIAADKQYKGIVDCIVRIPKEQGVLSFWRGNLANVIRYFPTQALNFAFKDKYKQIFLGGVDKHTQFWRYFAGNLASGGAAGATSLCFVYPLDFARTRLAADVGKSGTEREFRGLGDCLVKITKSDGIRGLYQGFSVSVQGIIIYRAAYFGVYDTAKGMLPDPKNTHIVVSWMIAQTVTAVAGVVSYPFDTVRRRMMMQSGRKGADIMYTGTVDCWRKIFRDEGGKAFFKGAWSNVLRGMGGAFVLVLYDELKKVI
binding [2]: binds

B4: SLC25A11 (protein, UniProt Q02978 1-314)
chain: MAATASAGAGGIDGKPRTSPKSVKFLFGGLAGMGATVFVQPLDLVKNRMQLSGEGAKTREYKTSFHALTSILKAEGLRGIYTGLSAGLLRQATYTTTRLGIYTVLFERLTGADGTPPGFLLKAVIGMTAGATGAFVGTPAEVALIRMTADGRLPADQRRGYKNVFNALIRITREEGVLTLWRGCIPTMARAVVVNAAQLASYSQSKQFLLDSGYFSDNILCHFCASMISGLVTTAASMPVDIAKTRIQNMRMIDGKPEYKNGLDVLFKVVRYEGFFSLWKGFTPYYARLGPHTVLTFIFLEQMNKAYKRLFLSG
binding [2]: binds

B5: SLC25A19 (protein, UniProt Q9HC21 1-320)
chain: MVGYDPKPDGRNNTKFQVAVAGSVSGLVTRALISPFDVIKIRFQLQHERLSRSDPSAKYHGILQASRQILQEEGPTAFWKGHVPAQILSIGYGAVQFLSFEMLTELVHRGSVYDAREFSVHFVCGGLAACMATLTVHPVDVLRTRFAAQGEPKVYNTLRHAVGTMYRSEGPQVFYKGLAPTLIAIFPYAGLQFSCYSSLKHLYKWAIPAEGKKNENLQNLLCGSGAGVISKTLTYPLDLFKKRLQVGGFEHARAAFGQVRRYKGLMDCAKQVLQKEGALGFFKGLSPSLLKAALSTGFMFFSYEFFCNVFHCMNRTASQR
binding [2]: binds

B6: SLC25A22 (protein, UniProt Q9H936 1-323)
chain: MADKQISLPAKLINGGIAGLIGVTCVFPIDLAKTRLQNQQNGQRVYTSMSDCLIKTVRSEGYFGMYRGAAVNLTLVTPEKAIKLAANDFFRHQLSKDGQKLTLLKEMLAGCGAGTCQVIVTTPMEMLKIQLQDAGRIAAQRKILAAQGQLSAQGGAQPSVEAPAAPRPTATQLTRDLLRSRGIAGLYKGLGATLLRDVPFSVVYFPLFANLNQLGRPASEEKSPFYVSFLAGCVAGSAAAVAVNPCDVVKTRLQSLQRGVNEDTYSGILDCARKILRHEGPSAFLKGAYCRALVIAPLFGIAQVVYFLGIAESLLGLLQDPQA
binding [2]: binds

B7: SLC25A13 (protein, UniProt Q9UJS0 1-675)
chain: MAAAKVALTKRADPAELRTIFLKYASIEKNGEFFMSPNDFVTRYLNIFGESQPNPKTVELLSGVVDQTKDGLISFQEFVAFESVLCAPDALFMVAFQLFDKAGKGEVTFEDVKQVFGQTTIHQHIPFNWDSEFVQLHFGKERKRHLTYAEFTQFLLEIQLEHAKQAFVQRDNARTGRVTAIDFRDIMVTIRPHVLTPFVEECLVAAAGGTTSHQVSFSYFNGFNSLLNNMELIRKIYSTLAGTRKDVEVTKEEFVLAAQKFGQVTPMEVDILFQLADLYEPRGRMTLADIERIAPLEEGTLPFNLAEAQRQKASGDSARPVLLQVAESAYRFGLGSVAGAVGATAVYPIDLVKTRMQNQRSTGSFVGELMYKNSFDCFKKVLRYEGFFGLYRGLLPQLLGVAPEKAIKLTVNDFVRDKFMHKDGSVPLAAEILAGGCAGGSQVIFTNPLEIVKIRLQVAGEITTGPRVSALSVVRDLGFFGIYKGAKACFLRDIPFSAIYFPCYAHVKASFANEDGQVSPGSLLLAGAIAGMPAASLVTPADVIKTRLQVAARAGQTTYSGVIDCFRKILREEGPKALWKGAGARVFRSSPQFGVTLLTYELLQRWFYIDFGGVKPMGSEPVPKSRINLPAPNPDHVGGYKLAVATFAGIENKFGLYLPLFKPSVSTSKAIGGGP
binding [2]: binds

B8: STT3A (protein, UniProt P46977 1-705)
chain: MTKFGFLRLSYEKQDTLLKLLILSMAAVLSFSTRLFAVLRFESVIHEFDPYFNYRTTRFLAEEGFYKFHNWFDDRAWYPLGRIIGGTIYPGLMITSAAIYHVLHFFHITIDIRNVCVFLAPLFSSFTTIVTYHLTKELKDAGAGLLAAAMIAVVPGYISRSVAGSYDNEGIAIFCMLLTYYMWIKAVKTGSICWAAKCALAYFYMVSSWGGYVFLINLIPLHVLVLMLTGRFSHRIYVAYCTVYCLGTILSMQISFVGFQPVLSSEHMAAFGVFGLCQIHAFVDYLRSKLNPQQFEVLFRSVISLVGFVLLTVGALLMLTGKISPWTGRFYSLLDPSYAKNNIPIIASVSEHQPTTWSSYYFDLQLLVFMFPVGLYYCFSNLSDARIFIIMYGVTSMYFSAVMVRLMLVLAPVMCILSGIGVSQVLSTYMKNLDISRPDKKSKKQQDSTYPIKNEVASGMILVMAFFLITYTFHSTWVTSEAYSSPSIVLSARGGDGSRIIFDDFREAYYWLRHNTPEDAKVMSWWDYGYQITAMANRTILVDNNTWNNTHISRVGQAMASTEEKAYEIMRELDVSYVLVIFGGLTGYSSDDINKFLWMVRIGGSTDTGKHIKENDYYTPTGEFRVDREGSPVLLNCLMYKMCYYRFGQVYTEAKRPPGFDRVRNAEIGNKDFELDVLEEAYTTEHWLVRIYKVKDLDNRGLSRT
binding [2]: binds

B9: DDOST (protein, UniProt P39656 43-456)
chain: SGPRTLVLLDNLNVRETHSLFFRSLKDRGFELTFKTADDPSLSLIKYGEFLYDNLIIFSPSVEDFGGNINVETISAFIDGGGSVLVAASSDIGDPLRELGSECGIEFDEEKTAVIDHHNYDISDLGQHTLIVADTENLLKAPTIVGKSSLNPILFRGVGMVADPDNPLVLDILTGSSTSYSFFPDKPITQYPHAVGKNTLLIAGLQARNNARVIFSGSLDFFSDSFFNSAVQKAAPGSQRYSQTGNYELAVALSRWVFKEEGVLRVGPVSHHRVGETAPPNAYTVTDLVEYSIVIQQLSNGKWVPFDGDDIQLEFVRIDPFVRTFLKKKGGKYSVQFKLPDVYGVFQFKVDYNRLGYTHLYSSTQVSVRPLQHTQYERFIPSAYPYYASAFSMMLGLFIFSIVFLHMKEKEKSD
binding [2]: binds

B10: RPN1 (protein, UniProt P04843 24-607)
chain: ASSEAPPLINEDVKRTVDLSSHLAKVTAEVVLAHLGGGSTSRATSFLLALEPELEARLAHLGVQVKGEDEEENNLEVRETKIKGKSGRFFTVKLPVALDPGAKISVIVETVYTHVLHPYPTQITQSEKQFVVFEGNHYFYSPYPTKTQTMRVKLASRNVESYTKLGNPTRSEDLLDYGPFRDVPAYSQDTFKVHYENNSPFLTITSMTRVIEVSHWGNIAVEENVDLKHTGAVLKGPFSRYDYQRQPDSGISSIRSFKTILPAAAQDVYYRDEIGNVSTSHLLILDDSVEMEIRPRFPLFGGWKTHYIVGYNLPSYEYLYNLGDQYALKMRFVDHVFDEQVIDSLTVKIILPEGAKNIEIDSPYEISRAPDELHYTYLDTFGRPVIVAYKKNLVEQHIQDIVVHYTFNKVLMLQEPLLVVAAFYILFFTVIIYVRLDFSITKDPAAEARMKVACITEQVLTLVNKRIGLYRHFDETVNRYKQSRDISTLNSGKKSLETEHKALTSEIALLQSRLKTEGSDLCDRVSEMQKLDAQVKELVLKSAVEAERLVAGKLKKDTYIENEKLISGKRQELVTKIDHILDAL
binding [2]: binds

B11: TMX3 (protein, UniProt Q96JJ7 25-454)
chain: KGFVEDLDESFKENRNDDIWLVDFYAPWCGHCKKLEPIWNEVGLEMKSIGSPVKVGKMDATSYSSIASEFGVRGYPTIKLLKGDLAYNYRGPRTKDDIIEFAHRVSGALIRPLPSQQMFEHMQKRHRVFFVYVGGESPLKEKYIDAASELIVYTYFFSASEEVVPEYVTLKEMPAVLVFKDETYFVYDEYEDGDLSSWINRERFQNYLAMDGFLLYELGDTGKLVALAVIDEKNTSVEHTRLKSIIQEVARDYRDLFHRDFQFGHMDGNDYINTLLMDELTVPTVVVLNTSNQQYFLLDRQIKNVEDMVQFINNILDGTVEAQGGDSILQRLKRIVFDAKSTIVSIFKSSPLMGCFLFGLPLGVISIMCYGIYTADTDGGYIEERYEVSKSENENQEQIEESKEQQEPSSGGSVVPTVQEPKDVLEKKKD
binding [1]: binds | binding [2]: binds
